The results in this text go back to paper doi:10.1101/2024.03.04.583391 (bioRxiv, 2024).

Amino acid sequences for entries named in this document (tags omitted). Residues count along the entry.
UniProt P08138, residues 29-427: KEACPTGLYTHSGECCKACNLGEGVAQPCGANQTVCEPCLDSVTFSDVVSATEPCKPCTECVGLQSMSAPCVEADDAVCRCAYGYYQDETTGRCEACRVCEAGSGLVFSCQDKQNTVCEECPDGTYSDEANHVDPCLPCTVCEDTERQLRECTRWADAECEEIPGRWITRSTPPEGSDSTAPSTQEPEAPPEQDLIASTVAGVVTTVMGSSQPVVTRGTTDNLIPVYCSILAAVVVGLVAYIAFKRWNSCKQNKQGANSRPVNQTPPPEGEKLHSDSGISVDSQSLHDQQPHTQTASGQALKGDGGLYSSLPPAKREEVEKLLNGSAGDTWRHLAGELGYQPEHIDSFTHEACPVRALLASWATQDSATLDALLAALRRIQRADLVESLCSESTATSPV

This test addresses B7-1-mCherry, on HEK293 cells (UniProt P33681). Put plainly: flow cytometry on cells. A general note: A flow cytometer gives signals particle by particle.

No constants are given. Whether binding was seen depends on the method and setting. Some entries that bind do so weakly or less than the wild type.

With “p75^NTR-GFP, on HEK293 cells (from UniProt P08138 29-427) (receptor)”, the binding entry was “binds”.
